This note sets out measurements from the supplement of paper PMC11348887.

Holding throughout (conditions): 5 µM; treatment: days 7-14 after plating, readout day 21
Assay [1] deals with hPSC-derived cortical neurons (WA09). Description: nucleus area z-score vs screen plate; higher = larger nuclei (more mature).
The test system is the same in assay [2]. Kind of assay: total neurite length per nucleus (MAP2) z-score; higher = more neurite growth.
Assay [3] has the same test system. Description: nucleus roundness z-score vs screen plate; higher = rounder nuclei (more mature).
Assay [4] shares this test system. Description: KCl-induced FOS+/EGR-1+ double-positive nuclei fraction z-score (KCl minus unstimulated); higher = stronger activity-induced IEG response.

SMILES strings stand for the structures. Structures can show the parent of a compound that is named as a salt. The list shows a part of the results. Small differences around the control level are noise.

`O=C1CCc2cc(OCCCCc3nnnn3C3CCCCC3)ccc2N1` [Cilostazol] displayed a nucleus area z-score in assay [1] of 0.887. Further, the “total neurite length per nucleus (z-score)” value in assay [2] was -0.593. For the same compound, in assay [3], the nucleus roundness z-score was -0.435. The “KCl-induced FOS+/EGR-1+ double-positive nuclei fraction z-score” value in assay [4] was 1.45.
In assay [1], `Cc1c(OCC(F)(F)F)ccnc1C[S+]([O-])c1nc2ccccc2[nH]1` (stereo not drawn) [Lansoprazole] gave a nucleus area z-score of 1.43. In addition, the “total neurite length per nucleus (z-score)” value in assay [2] was -0.602. The nucleus roundness z-score in assay [3] is -0.949. The “KCl-induced FOS+/EGR-1+ double-positive nuclei fraction z-score” value in assay [4] came out at 0.66.
`Cc1ccc(F)c(NC(=O)Nc2ccc(-c3cccc4[nH]nc(N)c34)cc2)c1` [Linifanib (ABT-869)] showed a nucleus area z-score in assay [1] of 1.66. Besides, the “total neurite length per nucleus (z-score)” value in assay [2] is -0.00444. The compound also had a nucleus roundness z-score in assay [3] of 0.233. The “KCl-induced FOS+/EGR-1+ double-positive nuclei fraction z-score” value in assay [4] was -1.25.
On the same counts, the results for `COC(=O)Nc1nc2cc(C(=O)c3ccccc3)ccc2[nH]1` [Mebendazole] are -3.05, -0.756, -1.06 and -0.33.
On the same counts, the results for `Oc1nc(-c2ccc(C(F)(F)F)cc2)nc2c1CSCC2` are 1.25, 3.74, -0.859 and -0.417.
The compound `COc1cc(CCc2cc(NC(=O)c3ccc(N4CC(C)NC(C)C4)cc3)n[nH]2)cc(OC)c1` (stereo not drawn) returned a nucleus area z-score in assay [1] of -2.38. In assay [2], the “total neurite length per nucleus (z-score)” value was 0.0659. This compound also returned a nucleus roundness z-score in assay [3] of -0.132. The “KCl-induced FOS+/EGR-1+ double-positive nuclei fraction z-score” value in assay [4] is -1.35.
For `CC(C(=O)O)c1ccc(C(=O)c2cccs2)cc1` (stereo not drawn) [Suprofen], in that order: 0.0598, 0.384, -0.309 and 0.194.
For `NC(N)=Nc1nc(CSCC/C(N)=N/S(N)(=O)=O)cs1` [Famotidine], in that order: -0.476, -0.437, 0.686 and 0.368.
On the same counts, the results for `C[N+]1(C)[C@@H]2C[C@@H](OC(=O)C(O)(c3cccs3)c3cccs3)C[C@H]1[C@@H]1O[C@@H]12` [Tiotropium Bromide hydrate] are 0.217, 0.414, -0.133 and 0.131.
In assay [1], `Oc1ccc(OCc2ccccc2)cc1` [Monobenzone] yielded a nucleus area z-score of -0.433. Further, the “total neurite length per nucleus (z-score)” value in assay [2] was 1.25. The same compound gave a nucleus roundness z-score in assay [3] of 1.09. The “KCl-induced FOS+/EGR-1+ double-positive nuclei fraction z-score” value in assay [4] was found to be 0.07.
For `O=C(O)c1ccc(N2C(=O)/C(=C\c3ccc(-c4ccc([N+](=O)[O-])cc4)o3)C=C2c2ccccc2)cc1`, in that order: -0.625, 0.242, -0.343 and 0.906.
For `CCOCC(O)COc1ccc(NC(=O)CC[S+](C)C)cc1` (stereo not drawn) [Suplatast Tosylate], in that order: 0.244, -0.0826, 0.48 and -0.0978.
On the same counts, the results for `COc1ccc([C@@H]2CC(=O)c3c(O)cc(O)cc3O2)cc1O` [Hesperetin] are -0.297, 0.0841, 0.155 and -0.259.
`OC[C@H]1O[C@@H](OCCc2ccc(O)cc2)[C@H](O)[C@@H](O)[C@@H]1O` [Salidroside] came in with a nucleus area z-score in assay [1] of 0.0968. Besides, the “total neurite length per nucleus (z-score)” value in assay [2] is 0.551. The nucleus roundness z-score in assay [3] is 0.136. In assay [4], the “KCl-induced FOS+/EGR-1+ double-positive nuclei fraction z-score” value came out at 0.728.
On the same counts, the results for `CCOC(=O)c1ccc(O)cc1` [Ethylparaben] are 0.57, -1.45, -1.38 and -0.183.
On the same counts, the results for `N=C(N)c1ccc(N=NNc2ccc(C(=N)N)cc2)cc1` [Diminazene Aceturate] are -0.415, 0.447, -1.27 and -0.304.
For `CC(S)C(=O)NCC(=O)O` (stereo not drawn) [Tiopronin], in that order: 0.116, 0.548, 0.0442 and 0.18.
As to `Cc1cc(C2CCCCC2)n(O)c(=O)c1` [Ciclopirox], in assay [1], the nucleus area z-score was -15.4. Moreover, the “total neurite length per nucleus (z-score)” value in assay [2] is -6.26. The compound further gave a nucleus roundness z-score in assay [3] of -5.49. The “KCl-induced FOS+/EGR-1+ double-positive nuclei fraction z-score” value in assay [4] was -1.82.
For the compound `CCOc1ccc2ccccc2c1C(=O)N[C@@H]1C(=O)N2[C@@H]1SC(C)(C)[C@@H]2C(=O)O` [Nafcillin Sodium], the nucleus area z-score in assay [1] was -0.0457. Also, the “total neurite length per nucleus (z-score)” value in assay [2] is -0.661. This compound gave a nucleus roundness z-score in assay [3] of -0.507. For the same compound, in assay [4], the “KCl-induced FOS+/EGR-1+ double-positive nuclei fraction z-score” value was -0.486.
On the same counts, the results for `Oc1ccc(Nc2nc(-c3ccc(Cl)cc3)cs2)cc1` are -1.12, -0.101, 0.163 and -0.164.
In assay [1], `CO[C@@]12[C@H](COC(N)=O)C3=C(C(=O)C(C)=C(N)C3=O)N1C[C@@H]1N[C@@H]12` [Mitomycin C] displayed a nucleus area z-score of -17. The “total neurite length per nucleus (z-score)” value in assay [2] is -6.69. For the same compound, in assay [3], the nucleus roundness z-score is -2.22. Also, the “KCl-induced FOS+/EGR-1+ double-positive nuclei fraction z-score” value in assay [4] was 12.8.
On the same counts, the results for `CCCCc1oc2ccccc2c1C(=O)c1cc(I)c(OCCN(CC)CC)c(I)c1` [Amiodarone HCl] are -2.03, -0.455, -0.548 and -0.281.
